# Percent effect of library compounds

Protein sequences, listed by entry. Tags and fused reporters are not part of them. Residues count along the entry.
UniProt P9WPC5, whole entry: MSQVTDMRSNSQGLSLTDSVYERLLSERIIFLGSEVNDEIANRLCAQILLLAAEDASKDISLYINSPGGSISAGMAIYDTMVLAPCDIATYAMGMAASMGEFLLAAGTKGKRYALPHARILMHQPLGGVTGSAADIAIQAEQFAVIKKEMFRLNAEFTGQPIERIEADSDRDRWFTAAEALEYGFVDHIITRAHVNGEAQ
UniProt P9WPC3, whole entry partner: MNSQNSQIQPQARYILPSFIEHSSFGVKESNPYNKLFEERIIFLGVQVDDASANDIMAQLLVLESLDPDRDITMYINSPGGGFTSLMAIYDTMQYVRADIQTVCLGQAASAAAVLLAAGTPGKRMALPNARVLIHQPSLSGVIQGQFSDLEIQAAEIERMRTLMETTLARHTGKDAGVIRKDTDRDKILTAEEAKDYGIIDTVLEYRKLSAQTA
UniProt I6X8D2, whole entry: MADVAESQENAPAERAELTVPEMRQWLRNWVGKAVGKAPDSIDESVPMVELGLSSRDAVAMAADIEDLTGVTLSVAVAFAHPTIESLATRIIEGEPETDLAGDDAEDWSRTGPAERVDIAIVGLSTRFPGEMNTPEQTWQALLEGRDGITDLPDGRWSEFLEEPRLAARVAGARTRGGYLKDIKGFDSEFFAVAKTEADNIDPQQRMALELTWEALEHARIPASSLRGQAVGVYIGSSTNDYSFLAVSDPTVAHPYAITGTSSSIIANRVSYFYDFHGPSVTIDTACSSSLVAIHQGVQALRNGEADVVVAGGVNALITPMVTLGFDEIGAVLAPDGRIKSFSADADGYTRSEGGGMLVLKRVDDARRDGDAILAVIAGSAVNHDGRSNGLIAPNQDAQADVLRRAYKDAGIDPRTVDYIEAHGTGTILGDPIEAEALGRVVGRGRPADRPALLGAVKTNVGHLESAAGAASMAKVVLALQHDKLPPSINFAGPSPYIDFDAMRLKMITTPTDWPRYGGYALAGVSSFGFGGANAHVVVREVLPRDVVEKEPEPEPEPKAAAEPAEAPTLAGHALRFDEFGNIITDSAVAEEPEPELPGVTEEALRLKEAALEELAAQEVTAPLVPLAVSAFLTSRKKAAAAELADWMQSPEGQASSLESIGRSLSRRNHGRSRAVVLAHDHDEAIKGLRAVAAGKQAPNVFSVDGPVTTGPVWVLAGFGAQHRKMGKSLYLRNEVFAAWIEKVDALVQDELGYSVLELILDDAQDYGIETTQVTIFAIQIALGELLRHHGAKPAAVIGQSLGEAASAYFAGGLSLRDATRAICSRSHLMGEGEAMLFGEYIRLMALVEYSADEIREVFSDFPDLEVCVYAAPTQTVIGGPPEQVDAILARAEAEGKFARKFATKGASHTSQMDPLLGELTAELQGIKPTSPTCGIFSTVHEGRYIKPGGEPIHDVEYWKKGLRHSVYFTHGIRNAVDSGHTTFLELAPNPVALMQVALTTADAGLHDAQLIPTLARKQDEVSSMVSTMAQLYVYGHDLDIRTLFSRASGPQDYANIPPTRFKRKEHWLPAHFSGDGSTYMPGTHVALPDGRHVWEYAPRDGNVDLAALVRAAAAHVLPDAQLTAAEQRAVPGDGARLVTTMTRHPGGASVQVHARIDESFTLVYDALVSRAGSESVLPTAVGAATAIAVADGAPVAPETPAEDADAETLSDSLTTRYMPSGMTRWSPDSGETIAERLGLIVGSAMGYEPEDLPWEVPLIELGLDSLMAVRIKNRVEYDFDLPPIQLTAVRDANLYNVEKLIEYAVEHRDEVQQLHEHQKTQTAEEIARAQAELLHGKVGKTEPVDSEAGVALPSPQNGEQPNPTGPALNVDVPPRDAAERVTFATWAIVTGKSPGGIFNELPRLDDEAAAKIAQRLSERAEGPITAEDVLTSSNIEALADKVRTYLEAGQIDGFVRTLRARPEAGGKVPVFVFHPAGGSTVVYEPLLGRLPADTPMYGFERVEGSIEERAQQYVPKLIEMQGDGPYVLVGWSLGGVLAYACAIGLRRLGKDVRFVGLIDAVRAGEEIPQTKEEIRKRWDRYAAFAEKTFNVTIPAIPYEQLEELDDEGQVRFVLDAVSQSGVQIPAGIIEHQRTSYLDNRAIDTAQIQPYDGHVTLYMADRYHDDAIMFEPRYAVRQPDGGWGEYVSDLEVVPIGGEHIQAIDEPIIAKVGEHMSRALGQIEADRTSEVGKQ
UniProt P9WNZ1, whole entry: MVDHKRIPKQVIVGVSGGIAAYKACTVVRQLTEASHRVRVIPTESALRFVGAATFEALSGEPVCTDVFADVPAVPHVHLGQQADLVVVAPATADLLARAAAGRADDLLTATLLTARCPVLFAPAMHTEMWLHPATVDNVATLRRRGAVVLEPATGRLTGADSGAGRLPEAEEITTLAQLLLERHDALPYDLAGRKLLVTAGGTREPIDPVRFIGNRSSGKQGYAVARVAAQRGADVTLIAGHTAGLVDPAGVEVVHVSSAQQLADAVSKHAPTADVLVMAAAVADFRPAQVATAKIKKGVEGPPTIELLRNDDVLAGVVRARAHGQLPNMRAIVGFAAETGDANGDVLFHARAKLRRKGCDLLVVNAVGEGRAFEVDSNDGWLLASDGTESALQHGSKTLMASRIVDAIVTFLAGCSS
UniProt A4I591, 1-473: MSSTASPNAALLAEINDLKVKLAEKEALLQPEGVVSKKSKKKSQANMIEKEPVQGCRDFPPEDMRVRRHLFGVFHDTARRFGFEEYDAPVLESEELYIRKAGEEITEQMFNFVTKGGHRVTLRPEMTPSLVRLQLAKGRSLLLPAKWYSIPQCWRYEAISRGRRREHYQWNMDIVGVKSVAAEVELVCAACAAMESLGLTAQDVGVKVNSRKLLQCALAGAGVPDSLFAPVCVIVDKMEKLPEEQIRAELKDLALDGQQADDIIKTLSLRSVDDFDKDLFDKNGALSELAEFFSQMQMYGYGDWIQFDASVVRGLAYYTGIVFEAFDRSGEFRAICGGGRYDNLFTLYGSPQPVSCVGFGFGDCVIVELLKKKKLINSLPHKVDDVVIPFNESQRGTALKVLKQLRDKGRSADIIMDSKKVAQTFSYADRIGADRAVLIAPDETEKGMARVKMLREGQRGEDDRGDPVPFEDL
UniProt Q4DA54, 1-478: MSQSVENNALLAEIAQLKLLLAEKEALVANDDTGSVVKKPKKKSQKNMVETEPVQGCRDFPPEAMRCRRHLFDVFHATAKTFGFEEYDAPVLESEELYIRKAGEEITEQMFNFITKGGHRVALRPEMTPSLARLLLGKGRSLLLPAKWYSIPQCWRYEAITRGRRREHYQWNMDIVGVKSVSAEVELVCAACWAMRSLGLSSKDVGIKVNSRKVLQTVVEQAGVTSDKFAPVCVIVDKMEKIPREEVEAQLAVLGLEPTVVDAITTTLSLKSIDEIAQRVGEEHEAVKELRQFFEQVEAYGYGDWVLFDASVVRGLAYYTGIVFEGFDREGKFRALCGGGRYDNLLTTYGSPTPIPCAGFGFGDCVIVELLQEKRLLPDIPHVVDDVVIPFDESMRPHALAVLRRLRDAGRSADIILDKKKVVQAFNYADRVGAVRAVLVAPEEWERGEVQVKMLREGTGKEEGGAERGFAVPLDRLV

ClpP1P2: 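Protease assay of ClpP1P2, read by the AMC dye that it sets free. Target: ClpP1P2, Mycobacterium tuberculosis (UniProt P9WPC5 and UniProt P9WPC3). Tested at 50 µM. Higher reads as stronger inhibition, judged from the few compounds that gave an IC50. Most other retested compounds had strongly negative values. Of about 69,000 compounds tested this way, about 10 (0.015%) reached 50% or more in at least one test.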
Pks13 thioesterase: 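Polyketide synthase Pks13, Mycobacterium tuberculosis (UniProt I6X8D2). Enzyme assay of the thioesterase domain of polyketide synthase 13; the read-out is not stated. Tested at 30 µM. Higher reads as stronger inhibition (inferred from which compounds were picked for retests). About 67,000 compounds were tested under these conditions; 0.46% (about 300) showed 50% or more at least once.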
CoaBC: 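Coenzyme A biosynthesis protein CoaBC, Mycobacterium tuberculosis (UniProt P9WNZ1). Enzyme assay of CoaBC with a phosphate dye (Biomol Green) read at 650 nm. Tested at 30 µM. Higher reads as stronger inhibition, judged from the few compounds that gave an IC50. Most strong results did not repeat in a second test. About 67,000 compounds were tested under these conditions; 0.06% (about 40) showed 50% or more at least once.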
LiHisRS: 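Histidine-tRNA ligase, Leishmania infantum (UniProt A4I591). Enzyme assay of histidyl-tRNA synthetase; the read-out is not stated. Tested at 30 µM. Direction is inferred from retests: higher values go with stronger inhibition. The assay is labelled LdHisRS but filed under L. infantum. Of about 69,000 compounds tested this way, about 410 (0.6%) reached 50% or more in at least one test.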
TcHisRS: 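Histidine-tRNA ligase, Trypanosoma cruzi CL Brener (UniProt Q4DA54). Enzyme assay of histidyl-tRNA synthetase; the read-out is not stated. Tested at 30 µM. Direction is inferred from retests: higher values go with stronger inhibition. Of about 69,000 compounds tested this way, about 31 (0.045%) reached 50% or more in at least one test.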

Values are the deposited “Percent Effect”, in %. The record does not define 0% and 100%; most values in the screen are far below 50% and negative numbers occur (in some assays of this library far below -100). The compounds are a random part of those screened.

{"smiles": "CC(C)(C)c1nnc2n1C(C(=O)N1CCOCC1)CC2", "stereo": "stereo not given", "ClpP1P2": 8.989, "Pks13 thioesterase": -14.24, "CoaBC": -4.211, "LiHisRS": 4.138, "TcHisRS": 4.142}
{"smiles": "Cc1cccc2c1ccn2CCC(=O)O", "ClpP1P2": -2.083, "Pks13 thioesterase": 20.56, "CoaBC": 1.402, "LiHisRS": 9.735, "TcHisRS": -2.212}
{"smiles": "Cc1nc(C2CCCN2CCCS(N)(=O)=O)no1", "stereo": "stereo not given", "ClpP1P2": -0.7015, "Pks13 thioesterase": -31.92, "CoaBC": 1.901, "LiHisRS": 21.43, "TcHisRS": 6.509}
{"smiles": "CNC(=O)c1ccc(C2CCCN(C(=O)c3sc(C)nc3C)C2)nc1", "stereo": "stereo not given", "ClpP1P2": 10.5, "Pks13 thioesterase": 5.287, "CoaBC": 0.9732, "LiHisRS": -3.158, "TcHisRS": 5.97}
{"smiles": "Cc1nn(C)c2nc(N3CCNC(=O)C3C(C)C)sc12", "stereo": "stereo not given", "ClpP1P2": 10.47, "Pks13 thioesterase": -24.84, "CoaBC": 2.2, "LiHisRS": 27.4, "TcHisRS": 1.093}
{"smiles": "Cc1cc(C)n(CC2CCCN2C(=O)c2ccnc(N(C)C)c2)n1", "stereo": "stereo not given", "ClpP1P2": -79.36, "Pks13 thioesterase": -14.83, "CoaBC": 2.611, "LiHisRS": 7.965, "TcHisRS": 3.207}
{"smiles": "COc1cccc(CNCCc2cccc(C(N)=O)c2)c1", "ClpP1P2": 0.6906, "Pks13 thioesterase": -6.334, "CoaBC": 5.556, "LiHisRS": 2.679, "TcHisRS": 3.448}
{"smiles": "CCc1ccc(CN2CCN(c3ncc(Cl)cn3)CC2)nc1", "ClpP1P2": -4.709, "Pks13 thioesterase": -33.32, "CoaBC": 3.306, "LiHisRS": 5.333, "TcHisRS": 12.5}
{"smiles": "CC(C)c1noc(CS(=O)(=O)CC(=O)NCc2cccs2)n1", "ClpP1P2": 13.38, "Pks13 thioesterase": 3.138, "CoaBC": 11.98, "LiHisRS": 4, "TcHisRS": 0.578}
{"smiles": "CC(=O)c1ccc(C(=O)NCCCOC(C)c2ccccc2)s1", "stereo": "stereo not given", "ClpP1P2": 5.214, "Pks13 thioesterase": -47.54, "CoaBC": 2.294, "LiHisRS": 8.571, "TcHisRS": -6.522}
{"smiles": "Cn1cc(NC(=O)N2CCC(Cc3ccccc3)CC2)ccc1=O", "ClpP1P2": -23.96, "Pks13 thioesterase": -4.157, "CoaBC": 8.421, "LiHisRS": 100.9, "TcHisRS": 6.745}
{"smiles": "N#Cc1ccc(-c2nnc(CSCCN3CCOCC3)o2)cc1", "ClpP1P2": -2.453, "Pks13 thioesterase": -30.7, "CoaBC": -0.3165, "LiHisRS": 19.48, "TcHisRS": 8.374}
{"smiles": "O=C(Cn1cc(-c2ccccc2)cn1)NC(C1CC1)C1CC1", "ClpP1P2": -0.5105, "Pks13 thioesterase": 5.316, "CoaBC": 5.342, "LiHisRS": 12.28, "TcHisRS": 3.725}
{"smiles": "COc1ccc(CN(C(=O)C(C)C)c2cnn(C)c2)c(OC)c1", "ClpP1P2": -6.6, "Pks13 thioesterase": -28.62, "CoaBC": 0.9494, "LiHisRS": 16.88, "TcHisRS": 6.404}
{"smiles": "C1CC(CN2C[C@H]3CC[C@@H]2CN(Cc2noc(C4CCCC4)n2)C3)C1", "ClpP1P2": 7.353, "Pks13 thioesterase": 2.796, "CoaBC": -3.474, "LiHisRS": 8.511, "TcHisRS": 6.358}
{"smiles": "COCCN1CCC2(CC1)CC(NCc1ccc(C)s1)c1ccccc12", "stereo": "stereo not given", "ClpP1P2": -5.617, "Pks13 thioesterase": -9.342, "CoaBC": 5.941, "LiHisRS": 13.51, "TcHisRS": 4.42}
{"smiles": "Cc1c(-c2n[nH]c3c2CN(CC2CCOC2)CC3)cccc1C(F)(F)F", "stereo": "stereo not given", "ClpP1P2": -1.121, "Pks13 thioesterase": -17.84, "CoaBC": -5.211, "LiHisRS": 6.383, "TcHisRS": 7.514}
{"smiles": "CCc1nnc2n1CCN(C(=O)c1cc3ccccc3[nH]1)C2", "ClpP1P2": -10.38, "Pks13 thioesterase": -14.5, "CoaBC": 0.129, "LiHisRS": 13.91, "TcHisRS": 0.5747}
{"smiles": "COCc1cc(CC2(NCc3ccccc3Cl)COC2)no1", "ClpP1P2": -9.387, "Pks13 thioesterase": -3.899, "CoaBC": 5.519, "LiHisRS": 20.27, "TcHisRS": 8.696}
{"smiles": "CN1Cc2c(C(=O)NCC3CCCO3)ncn2-c2ccccc2S1(=O)=O", "stereo": "stereo not given", "ClpP1P2": 11.22, "Pks13 thioesterase": -0.3179, "CoaBC": 5.331, "LiHisRS": 24.47, "TcHisRS": 14.07}
{"smiles": "COCc1nn(C(C)C)c2c1CCN(Cc1ccc(C)o1)C2", "ClpP1P2": -14.68, "Pks13 thioesterase": -5.454, "CoaBC": -3.083, "LiHisRS": 0, "TcHisRS": 0}
{"smiles": "CCOCc1cncc2c1CCN(C(=O)c1cccc(C#N)c1)C2", "ClpP1P2": -3.061, "Pks13 thioesterase": -41.38, "CoaBC": 6.131, "LiHisRS": 15.79, "TcHisRS": 2.151}

The first 2 entries again:

| SMILES | ClpP1P2 | Pks13 thioesterase | CoaBC | LiHisRS | TcHisRS |
|---|---|---|---|---|---|
| `CC(C)(C)c1nnc2n1C(C(=O)N1CCOCC1)CC2` (stereo not given) | 8.989 | -14.24 | -4.211 | 4.138 | 4.142 |
| `Cc1cccc2c1ccn2CCC(=O)O` | -2.083 | 20.56 | 1.402 | 9.735 | -2.212 |

Measurements from “University of Dundee, Small-Polar-MMV Screening Library” (2021), ChEMBL document CHEMBL3988442.